Results are given in words; binding and its absence hold for the method and conditions named. In cells and extracts the contact can be indirect. Some binding calls cover weakened binding; strength is not graded here.
Tests used:
Test in all cases: co-IP; endogenous proteins in lysates (mild RIPA buffer, proteinase inhibitors) of WT, p21 null, G2DKO and p21G2TKO MEFs; pre-cleared, then incubated with Protein A/G Magnetic Beads and anti-Lin9, anti-E2F1 or anti-β-Catenin (non-phosphorylated (active)) antibody at 4 °C overnight; precipitates analysed by Western blotting
[1] = molecular target: T1, Lin9 (mouse (endogenous in MEFs)) (UniProt Q8C735)
T1 sequence: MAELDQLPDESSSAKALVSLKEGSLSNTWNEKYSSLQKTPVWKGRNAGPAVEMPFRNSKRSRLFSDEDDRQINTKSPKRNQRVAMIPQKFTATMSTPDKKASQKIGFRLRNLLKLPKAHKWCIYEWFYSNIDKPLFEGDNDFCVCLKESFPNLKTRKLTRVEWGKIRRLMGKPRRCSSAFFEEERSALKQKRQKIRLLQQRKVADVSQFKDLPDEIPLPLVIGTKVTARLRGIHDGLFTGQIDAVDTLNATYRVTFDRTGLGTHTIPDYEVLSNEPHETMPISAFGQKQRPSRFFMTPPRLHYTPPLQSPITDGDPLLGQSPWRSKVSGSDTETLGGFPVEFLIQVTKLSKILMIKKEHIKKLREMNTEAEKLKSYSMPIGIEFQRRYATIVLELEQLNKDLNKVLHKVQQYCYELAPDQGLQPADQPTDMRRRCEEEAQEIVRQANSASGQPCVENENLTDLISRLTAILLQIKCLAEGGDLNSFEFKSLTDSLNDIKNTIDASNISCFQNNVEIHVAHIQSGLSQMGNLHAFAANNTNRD

The chains behind the UniProt entries cited, without tags or fusion partners. Residues count along the entry.
UniProt Q02248: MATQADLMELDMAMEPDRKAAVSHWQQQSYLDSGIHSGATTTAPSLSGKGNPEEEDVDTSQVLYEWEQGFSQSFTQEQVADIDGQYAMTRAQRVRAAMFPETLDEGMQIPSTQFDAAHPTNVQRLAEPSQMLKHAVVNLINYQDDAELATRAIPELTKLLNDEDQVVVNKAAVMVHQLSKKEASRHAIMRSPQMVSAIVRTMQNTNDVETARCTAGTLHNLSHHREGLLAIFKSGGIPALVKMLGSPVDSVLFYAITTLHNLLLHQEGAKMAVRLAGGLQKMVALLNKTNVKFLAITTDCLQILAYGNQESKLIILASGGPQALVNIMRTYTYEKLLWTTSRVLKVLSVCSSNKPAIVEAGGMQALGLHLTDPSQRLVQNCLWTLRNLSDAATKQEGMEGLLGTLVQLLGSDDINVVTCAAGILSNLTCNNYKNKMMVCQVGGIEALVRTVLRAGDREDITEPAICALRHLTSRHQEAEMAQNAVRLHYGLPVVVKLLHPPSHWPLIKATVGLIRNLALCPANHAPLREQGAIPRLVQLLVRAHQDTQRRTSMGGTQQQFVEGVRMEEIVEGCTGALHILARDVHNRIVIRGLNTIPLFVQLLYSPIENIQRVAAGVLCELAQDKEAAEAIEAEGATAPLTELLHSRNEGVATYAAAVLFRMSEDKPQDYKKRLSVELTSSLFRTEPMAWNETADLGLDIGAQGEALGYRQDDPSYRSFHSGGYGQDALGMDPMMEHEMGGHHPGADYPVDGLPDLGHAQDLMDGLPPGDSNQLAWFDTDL
UniProt Q61501: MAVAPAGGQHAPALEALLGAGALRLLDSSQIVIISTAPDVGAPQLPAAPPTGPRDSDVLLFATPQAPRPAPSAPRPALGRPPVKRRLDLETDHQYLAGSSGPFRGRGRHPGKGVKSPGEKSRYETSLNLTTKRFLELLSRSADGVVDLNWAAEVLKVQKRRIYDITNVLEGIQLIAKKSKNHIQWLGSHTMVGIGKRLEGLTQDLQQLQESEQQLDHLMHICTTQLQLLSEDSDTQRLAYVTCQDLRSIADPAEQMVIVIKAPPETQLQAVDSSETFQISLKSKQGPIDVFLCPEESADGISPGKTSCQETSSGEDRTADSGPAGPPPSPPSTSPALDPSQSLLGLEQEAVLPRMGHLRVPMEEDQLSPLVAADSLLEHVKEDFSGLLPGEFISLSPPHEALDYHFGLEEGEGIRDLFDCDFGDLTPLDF
UniProt P48972: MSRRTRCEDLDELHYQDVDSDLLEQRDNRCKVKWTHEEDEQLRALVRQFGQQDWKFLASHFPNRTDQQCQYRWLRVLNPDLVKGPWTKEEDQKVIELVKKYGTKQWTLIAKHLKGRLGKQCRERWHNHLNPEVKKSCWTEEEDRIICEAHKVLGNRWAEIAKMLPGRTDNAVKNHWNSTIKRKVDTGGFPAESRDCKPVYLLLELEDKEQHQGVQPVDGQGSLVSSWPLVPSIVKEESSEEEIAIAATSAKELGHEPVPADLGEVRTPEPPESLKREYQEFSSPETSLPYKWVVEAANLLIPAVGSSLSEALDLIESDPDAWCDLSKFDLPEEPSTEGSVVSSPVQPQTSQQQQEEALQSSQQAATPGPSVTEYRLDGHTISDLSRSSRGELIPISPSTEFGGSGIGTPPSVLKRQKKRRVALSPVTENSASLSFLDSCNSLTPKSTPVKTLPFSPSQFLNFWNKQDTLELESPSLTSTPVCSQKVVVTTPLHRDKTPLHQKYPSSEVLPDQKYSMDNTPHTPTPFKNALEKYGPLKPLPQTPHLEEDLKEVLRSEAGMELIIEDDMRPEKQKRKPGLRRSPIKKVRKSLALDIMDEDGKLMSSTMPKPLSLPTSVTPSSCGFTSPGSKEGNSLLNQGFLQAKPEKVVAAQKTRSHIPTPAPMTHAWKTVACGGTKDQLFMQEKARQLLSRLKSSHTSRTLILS
UniProt Q01705, residues 19-2531: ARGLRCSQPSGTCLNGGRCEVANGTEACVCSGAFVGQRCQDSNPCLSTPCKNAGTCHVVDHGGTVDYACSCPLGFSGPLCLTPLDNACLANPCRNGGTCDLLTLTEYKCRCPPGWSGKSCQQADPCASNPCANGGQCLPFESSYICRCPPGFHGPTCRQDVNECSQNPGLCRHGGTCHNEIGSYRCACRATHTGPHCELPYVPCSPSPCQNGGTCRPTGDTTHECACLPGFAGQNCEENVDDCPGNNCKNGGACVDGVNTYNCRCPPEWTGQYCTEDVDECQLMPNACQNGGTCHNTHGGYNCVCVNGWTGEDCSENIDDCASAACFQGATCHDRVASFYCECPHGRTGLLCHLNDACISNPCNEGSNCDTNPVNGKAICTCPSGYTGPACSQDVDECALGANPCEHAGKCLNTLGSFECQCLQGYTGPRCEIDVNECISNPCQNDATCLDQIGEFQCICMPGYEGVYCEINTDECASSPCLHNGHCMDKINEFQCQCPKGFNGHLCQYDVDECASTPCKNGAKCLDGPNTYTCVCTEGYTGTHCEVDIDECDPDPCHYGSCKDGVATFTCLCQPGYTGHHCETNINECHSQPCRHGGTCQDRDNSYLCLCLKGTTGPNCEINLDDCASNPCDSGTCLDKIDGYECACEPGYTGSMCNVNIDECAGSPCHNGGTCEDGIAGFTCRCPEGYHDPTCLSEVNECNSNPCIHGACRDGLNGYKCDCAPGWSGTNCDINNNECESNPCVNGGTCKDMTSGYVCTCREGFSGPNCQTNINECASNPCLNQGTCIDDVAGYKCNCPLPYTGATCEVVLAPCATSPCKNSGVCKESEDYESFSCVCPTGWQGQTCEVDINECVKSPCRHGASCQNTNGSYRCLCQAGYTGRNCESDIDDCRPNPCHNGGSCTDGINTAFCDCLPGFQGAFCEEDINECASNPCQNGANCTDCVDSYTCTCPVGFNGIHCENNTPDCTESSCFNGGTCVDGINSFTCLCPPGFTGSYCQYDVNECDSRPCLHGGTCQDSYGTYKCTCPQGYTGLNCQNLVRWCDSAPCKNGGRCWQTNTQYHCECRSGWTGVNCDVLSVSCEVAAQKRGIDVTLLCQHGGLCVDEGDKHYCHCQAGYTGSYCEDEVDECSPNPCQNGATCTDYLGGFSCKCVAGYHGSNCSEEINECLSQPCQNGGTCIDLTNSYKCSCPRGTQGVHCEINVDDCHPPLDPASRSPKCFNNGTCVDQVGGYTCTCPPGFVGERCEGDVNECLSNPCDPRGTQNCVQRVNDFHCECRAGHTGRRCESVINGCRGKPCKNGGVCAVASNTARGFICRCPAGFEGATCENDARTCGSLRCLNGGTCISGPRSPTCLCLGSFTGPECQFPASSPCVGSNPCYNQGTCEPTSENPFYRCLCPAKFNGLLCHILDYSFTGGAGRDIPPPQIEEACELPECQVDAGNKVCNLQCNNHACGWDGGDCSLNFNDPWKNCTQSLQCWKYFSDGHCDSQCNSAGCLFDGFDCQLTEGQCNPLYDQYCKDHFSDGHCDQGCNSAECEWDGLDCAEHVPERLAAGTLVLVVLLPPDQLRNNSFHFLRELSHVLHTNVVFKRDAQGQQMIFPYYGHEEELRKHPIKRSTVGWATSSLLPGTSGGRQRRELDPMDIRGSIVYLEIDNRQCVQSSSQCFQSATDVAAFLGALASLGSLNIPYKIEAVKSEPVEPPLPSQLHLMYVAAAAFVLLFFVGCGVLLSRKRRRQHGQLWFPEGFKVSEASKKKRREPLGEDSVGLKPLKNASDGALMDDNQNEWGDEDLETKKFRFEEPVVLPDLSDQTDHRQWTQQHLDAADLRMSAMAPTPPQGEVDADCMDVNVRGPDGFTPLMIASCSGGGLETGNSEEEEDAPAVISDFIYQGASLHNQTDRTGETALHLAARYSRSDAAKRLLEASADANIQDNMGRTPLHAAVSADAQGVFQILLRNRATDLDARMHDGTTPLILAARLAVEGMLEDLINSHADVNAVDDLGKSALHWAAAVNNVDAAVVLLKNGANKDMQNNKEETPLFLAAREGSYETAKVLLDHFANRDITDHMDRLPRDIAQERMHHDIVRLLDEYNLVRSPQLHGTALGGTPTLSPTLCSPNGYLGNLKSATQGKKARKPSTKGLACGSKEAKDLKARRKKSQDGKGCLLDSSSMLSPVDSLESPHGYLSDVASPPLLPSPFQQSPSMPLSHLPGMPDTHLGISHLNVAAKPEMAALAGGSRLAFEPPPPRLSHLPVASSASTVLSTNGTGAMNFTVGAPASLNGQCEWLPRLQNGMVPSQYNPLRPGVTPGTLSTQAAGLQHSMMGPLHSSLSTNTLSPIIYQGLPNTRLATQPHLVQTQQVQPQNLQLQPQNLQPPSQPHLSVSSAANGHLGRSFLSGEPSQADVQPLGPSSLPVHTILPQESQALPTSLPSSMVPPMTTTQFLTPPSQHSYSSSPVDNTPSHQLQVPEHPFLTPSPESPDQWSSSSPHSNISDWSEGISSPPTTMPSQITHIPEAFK
UniProt P31266: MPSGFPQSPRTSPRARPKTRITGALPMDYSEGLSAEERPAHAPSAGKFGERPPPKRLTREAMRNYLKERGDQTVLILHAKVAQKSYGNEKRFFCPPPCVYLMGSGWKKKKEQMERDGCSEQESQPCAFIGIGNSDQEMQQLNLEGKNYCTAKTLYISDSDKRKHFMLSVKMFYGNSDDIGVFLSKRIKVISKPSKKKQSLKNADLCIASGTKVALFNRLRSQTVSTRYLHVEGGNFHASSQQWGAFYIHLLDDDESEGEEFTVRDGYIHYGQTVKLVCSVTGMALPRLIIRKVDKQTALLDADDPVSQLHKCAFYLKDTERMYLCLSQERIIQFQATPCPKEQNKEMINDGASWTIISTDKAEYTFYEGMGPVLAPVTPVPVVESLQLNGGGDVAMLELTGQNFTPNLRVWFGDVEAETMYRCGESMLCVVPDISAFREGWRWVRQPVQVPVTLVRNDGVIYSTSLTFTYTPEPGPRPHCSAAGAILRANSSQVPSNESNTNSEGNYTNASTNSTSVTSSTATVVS

[2] = molecular target: β-Catenin (mouse (endogenous in MEFs)) (UniProt Q02248)
[3] = molecular target: E2F1 (mouse (endogenous in MEFs)) (UniProt Q61501)

Molecule	binding [1]	binding [2]	binding [3]
B-Myb (from UniProt P48972 1-704)	binds	–	–
Notch1 (from UniProt Q01705 19-2531)	–	binds	–
Rbpj (from UniProt P31266 1-526)	–	binds	–
p130 (protein, UniProt Q64700 1-1135) MASGGNQSPPPPPAAAASSEEEEEDGDAADRAQPAGSPSHQIQQRFEELCSRLNMDEAARAEAWSSYRSMSESYTLEGNDLHWLACALYVACRKSVPTVSKGTAEGNYVSLTRILRCSEQSLIEFFNKMKKWEDMANLPPHFRERTERLERNFTVSAVIFKKYEPIFQDIFKYPQEEQPRQQRGRKQRRQPCTTSEIFHFCWVLFIYAKGNFPMISDDLVNSYHLLLCALDLVYGNALQCSNRKELVNPNFKGLSEDCHPKDSKASSDPPCVIEKLCSLHDGLVLEAKGIKEHFWKPYIRKLFEKKLLKGKEENLTGFLEPGNFGESFKAVNKAYEEYVLAAGNLDERVFLGEDAEEEVGTLSRCLSAASGTESAERTQMRDILQQHLDKSKALRVCTPLTGVRYVQENSPCVTPVSTAAHSLSRLHTMLSGLRNAPSEKLERILRSCSRDPTQAIADRLKEMYEIYSQHFQPDENFSNCAKEIANKHFRFAEMLYYKVLESVIEQEQKRLGDMDLSGVLEHDAFHRSLLACCLEVVAFSHKPPGNFPFIAEIFDVPHYHFYKVIEVFIRAEDGLCREVVKHLNQIEEQILDHLAWKTKSPLWDRIRDNENRVPTCEEVMPPQNLERTDEIYIAGSPLTPRRVGEVRADAGGLGRSITSPTTLYDRYSSPTVSTTRRRLFENDSPSEGSTSGRIPPQPLVNAVPVQNVPGETVSVTPVPGQTLVTMATATVTANNGQTVTIPVQGIANENGGITFFPVQVNVGGQAQAVAGSIQPLSAQALAGSLSSQQVTGTTLQVPGPVAIQQISPGGQQQNPGQPLTSSSIRPRKTSSLALFFRKVYYLAGVRLRDLCIKLDISDELRKKIWTCFEFSIIQCTELMMDRHLDQLLMCAIYVMAKVTKEDRSFQNIMRCYRTQPQARSQVYRSVLIKGKRRNSGSSESRSHQNSPTELNTDRASRDSSPVMRSNSTLPVPQPSSAPPTPTRLTGASSDVEEEERGDLIQFYNNIYRKQIQAFAMKYSQANAQTDTPPLSPYPFVRTGSPRRVQLSQSHPIYISPHNNEAMPSPREKIFYYFSNSPSKRLREINSMIRTGETPTKKRGILLDDGSESPAKRICPENHSALLRRLQDVANDRGSQ	binds	–	–
Rb (protein, UniProt P13405 1-921) MPPKAPRRAAAAEPPPPPPPPPREDDPAQDSGPEELPLARLEFEEIEEPEFIALCQKLKVPDHVRERAWLTWEKVSSVDGILEGYIQKKKELWGICIFIAAVDLDEMPFTFTELQKSIETSVYKFFDLLKEIDTSTKVDNAMSRLLKKYNVLCALYSKLERTCELIYLTQPSSALSTEINSMLVLKISWITFLLAKGEVLQMEDDLVISFQLMLCVVDYFIKFSPPALLREPYKTAAIPINGSPRTPRRGQNRSARIAKQLENDTRIIEVLCKEHECNIDEVKNVYFKNFIPFINSLGIVSSNGLPEVESLSKRYEEVYLKNKDLDARLFLDHDKTLQTDPIDSFETERTPRKNNPDEEANVVTPHTPVRTVMNTIQQLMVILNSASDQPSENLISYFNNCTVNPKENILKRVKDVGHIFKEKFANAVGQGCVDIGVQRYKLGVRLYYRVMESMLKSEEERLSIQNFSKLLNDNIFHMSLLACALEVVMATYSRSTLQHLDSGTDLSFPWILNVLNLKAFDFYKVIESFIKVEANLTREMIKHLERCEHRIMESLAWLSDSPLFDLIKQSKDGEGPDNLEPACPLSLPLQGNHTAADMYLSPLRSPKKRTSTTRVNSAANTETQAASAFHTQKPLKSTSLALFYKKVYRLAYLRLNTLCARLLSDHPELEHIIWTLFQHTLQNEYELMRDRHLDQIMMCSMYGICKVKNIDLKFKIIVTAYKDLPHAAQETFKRVLIREEEFDSIIVFYNSVFMQRLKTNILQYASTRPPTLSPIPHIPRSPYKFSSSPLRIPGGNIYISPLKSPYKISEGLPTPTKMTPRSRILVSIGESFGTSEKFQKINQMVCNSDRVLKRSAEGGNPPKPLKKLRFDIEGADEADGSKHLPAESKFQQKLAEMTSTRTRMQKQRMNESKDVSNKEEK	–	–	binds
p107 (protein, UniProt Q64701 1-1063) MFEDEPHAEGAAAVAAAREALQALCQELNLDEGSAAEALDDFTAIRGNYSLEGEVIHWLACSLYVACRKSIIPTVGKGVMEGNCVSLTRILRSAKLSLIQFFSKMKKWMDMSNLPQEFRERIERLERNFEVSTVIFKKFEPIFLDIFQNPYEEPPKLPRSRKQRRIPCSVKDLFNFCWTLFVYTKGNFRMIGDDLVNSYHLLLCCLDLIFANAIMCPNRRDLLNPSFKGLPSDFHAPDFKAAEEPPCIIAVLCDLHDGLLVEAKGIKEHYFKPYISKLFDKKILKGECLLDLSSFTDNSKAVNKEYEEYVLTVGDFDERIFLGADAEEEIGTPRKFTADTPFGKLTSQASVECNLQQHFEKKRSFAPSTPLTGRRYLQEKEAVTTPVASATQSVSRLQSIVAGLKSAPSEQLLNIFESCMRNPMGNIIKIVKGIGETFCQHYTQSTDKQPGSHIDFAVNRLKLAEILYYKILETIMVQETRRLHGMDMSVLLEQDIFHKSLMACCLEIVLFAYSSPRTFPWIIEVLDLQPFYFYKVIEVVIRSEEGLSRDMVKHLNSIEEQILESLAWTNNSALWEALHASANRVPSCEEVIFPNNFEIGNGGNVQGHLPMMPMSPIIHPRVKEVRTDSGSLRQDMQPLSPISVHERYSSPAAGSAKRRLFGDDPPKDTLMDKIMAEGTKLKIAPSSVTAESLSISPGQALLTMATTTVTGTTGRKVTVPLHGIANDAGEITLVPISMNPTQESTAESPVSLTAQSLIGTSPKQTHLTKAQDAHLTGVSKPKRTGSLALFYRKVYHLASVRLRDLCLKLDVSNELRRKIWTCFEFTLVHCPDLMKDRHLDQLLLCAFYIMAKVTKEERTFQEIMKSYRNQPQANSHVYRSVLLKSIPGGVVVYNGDCEMTDGDIEDATKTPNCSSEPVKEERGDLIKFYNTVYVGRVKSFALKYDLSNQDHIMDAPPLSPFPHIKQQPGSPRRISQQHSLYVSPHKNGAGLTPRSALLYKFNGSPSKSLKDINNMIRQGEQKTKKRVIAISGDADSPAKRLCQENDDVLLKRLQDVVSERANH	–	–	binds
